Source: patent US20030182691A1
These are yes or no findings as the source states them, for the method shown. Some binding calls cover weakened binding; strength is not graded here. Sequences can lack the tags named with a protein.

Key:
[1] = target: T1, papain (cysteine protease) (UniProt P00784); assay: phage ELISA
T1 sequence (looked up): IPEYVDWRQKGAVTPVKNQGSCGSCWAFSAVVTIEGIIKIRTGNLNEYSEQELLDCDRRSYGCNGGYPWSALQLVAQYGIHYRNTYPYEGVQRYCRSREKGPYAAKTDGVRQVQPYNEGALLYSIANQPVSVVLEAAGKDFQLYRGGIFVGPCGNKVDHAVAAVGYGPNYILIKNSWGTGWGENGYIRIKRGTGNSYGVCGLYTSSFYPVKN

[2] = target: T1, papain (cysteine protease); assay: phage ELISA, papain coated in well

B1: phage displaying the OV7 protease inhibitor (OV7 from Onchocerca volvulus expressed on the surface of filamentous phage as a fusion to the gene 3 phage coat … (protein)
chain: AKNPSKMESKTGENQDRPVLLGGWEDRDPKDEEILELLPSILMKVNEQSNDEYHLMPIKLLKVSSQVVAGVKYKMDVQVARSQCKKSSNEKVDLTKCKKLEGHPEKVMTLEVWEKPWENFMRVEILGTKEV
binding [1]: binds | binding [2]: binds
